# The list shows a part of the results.
# Sequences of proteins named here, by UniProt entry; tags and fusion partners are left off. A change or cut given only in a name is not applied to a line headed by its entry.
# UniProt Q7Z2W4: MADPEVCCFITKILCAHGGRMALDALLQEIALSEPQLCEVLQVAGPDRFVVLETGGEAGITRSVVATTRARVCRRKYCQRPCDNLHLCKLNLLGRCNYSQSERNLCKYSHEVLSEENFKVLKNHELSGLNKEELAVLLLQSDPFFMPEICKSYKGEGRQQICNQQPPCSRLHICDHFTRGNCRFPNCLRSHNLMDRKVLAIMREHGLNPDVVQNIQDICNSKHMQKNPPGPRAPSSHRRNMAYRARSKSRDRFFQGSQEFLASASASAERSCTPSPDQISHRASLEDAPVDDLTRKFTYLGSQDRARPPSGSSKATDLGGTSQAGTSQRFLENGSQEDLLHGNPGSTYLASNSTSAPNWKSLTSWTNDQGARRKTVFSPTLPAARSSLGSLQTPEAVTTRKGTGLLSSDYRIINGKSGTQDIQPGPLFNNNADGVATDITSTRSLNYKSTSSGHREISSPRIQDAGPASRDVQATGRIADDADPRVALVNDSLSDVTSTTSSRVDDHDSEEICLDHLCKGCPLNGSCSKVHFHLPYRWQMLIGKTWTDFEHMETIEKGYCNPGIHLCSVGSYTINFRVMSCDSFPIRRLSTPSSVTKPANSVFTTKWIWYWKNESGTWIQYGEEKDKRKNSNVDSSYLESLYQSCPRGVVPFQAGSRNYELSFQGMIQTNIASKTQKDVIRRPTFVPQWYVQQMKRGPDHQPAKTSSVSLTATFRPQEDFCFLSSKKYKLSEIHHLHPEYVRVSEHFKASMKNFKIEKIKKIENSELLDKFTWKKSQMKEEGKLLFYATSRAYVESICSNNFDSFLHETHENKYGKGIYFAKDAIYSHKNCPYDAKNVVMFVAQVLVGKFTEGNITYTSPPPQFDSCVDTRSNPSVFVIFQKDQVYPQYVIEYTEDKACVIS
# UniProt Q8TCF1: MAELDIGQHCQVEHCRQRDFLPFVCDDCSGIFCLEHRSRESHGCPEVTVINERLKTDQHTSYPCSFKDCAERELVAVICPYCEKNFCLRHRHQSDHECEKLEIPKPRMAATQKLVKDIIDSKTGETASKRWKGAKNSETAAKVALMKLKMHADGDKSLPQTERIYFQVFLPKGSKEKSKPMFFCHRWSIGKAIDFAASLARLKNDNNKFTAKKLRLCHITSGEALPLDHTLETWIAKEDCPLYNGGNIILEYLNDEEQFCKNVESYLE
# UniProt Q6PJT7: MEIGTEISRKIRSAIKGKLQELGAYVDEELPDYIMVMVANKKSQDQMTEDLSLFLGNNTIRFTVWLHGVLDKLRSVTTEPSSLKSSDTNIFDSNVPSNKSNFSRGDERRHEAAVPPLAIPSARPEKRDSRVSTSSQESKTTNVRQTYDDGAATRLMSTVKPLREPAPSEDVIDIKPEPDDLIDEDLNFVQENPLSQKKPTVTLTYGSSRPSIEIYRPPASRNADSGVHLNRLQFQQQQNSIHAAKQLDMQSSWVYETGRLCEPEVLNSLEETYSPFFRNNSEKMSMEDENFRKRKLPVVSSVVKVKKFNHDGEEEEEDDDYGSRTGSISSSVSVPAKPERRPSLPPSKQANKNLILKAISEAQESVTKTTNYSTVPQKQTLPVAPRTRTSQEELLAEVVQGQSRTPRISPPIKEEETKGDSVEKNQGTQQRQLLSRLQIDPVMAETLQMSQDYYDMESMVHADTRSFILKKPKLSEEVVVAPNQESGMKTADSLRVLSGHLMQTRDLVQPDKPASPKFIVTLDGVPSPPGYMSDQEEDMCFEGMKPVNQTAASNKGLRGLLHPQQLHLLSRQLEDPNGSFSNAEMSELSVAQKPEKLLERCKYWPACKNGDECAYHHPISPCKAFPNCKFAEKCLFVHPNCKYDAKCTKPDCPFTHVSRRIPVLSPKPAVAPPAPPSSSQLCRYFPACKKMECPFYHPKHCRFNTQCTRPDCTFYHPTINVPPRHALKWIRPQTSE
# UniProt O75152: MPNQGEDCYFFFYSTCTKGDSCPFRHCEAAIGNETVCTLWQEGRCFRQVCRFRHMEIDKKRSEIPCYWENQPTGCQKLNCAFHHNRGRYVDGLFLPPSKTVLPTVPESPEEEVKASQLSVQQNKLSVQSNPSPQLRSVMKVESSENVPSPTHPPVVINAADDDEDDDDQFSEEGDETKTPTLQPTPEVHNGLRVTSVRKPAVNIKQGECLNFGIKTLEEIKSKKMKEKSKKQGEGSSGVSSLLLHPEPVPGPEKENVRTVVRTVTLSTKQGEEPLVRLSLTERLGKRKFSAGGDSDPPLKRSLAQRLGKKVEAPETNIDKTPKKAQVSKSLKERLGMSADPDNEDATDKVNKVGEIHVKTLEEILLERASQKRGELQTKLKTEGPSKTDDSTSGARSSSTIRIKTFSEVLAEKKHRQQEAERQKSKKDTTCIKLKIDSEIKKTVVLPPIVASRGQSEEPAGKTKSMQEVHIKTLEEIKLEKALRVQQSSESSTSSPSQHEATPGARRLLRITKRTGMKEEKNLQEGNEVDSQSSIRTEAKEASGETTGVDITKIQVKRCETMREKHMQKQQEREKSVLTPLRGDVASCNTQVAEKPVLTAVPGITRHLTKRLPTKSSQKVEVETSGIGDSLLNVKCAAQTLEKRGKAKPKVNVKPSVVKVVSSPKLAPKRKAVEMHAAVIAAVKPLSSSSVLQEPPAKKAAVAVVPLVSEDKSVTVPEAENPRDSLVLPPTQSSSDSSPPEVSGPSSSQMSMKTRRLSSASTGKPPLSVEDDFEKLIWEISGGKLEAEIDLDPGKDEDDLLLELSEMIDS
# UniProt Q9C0E2: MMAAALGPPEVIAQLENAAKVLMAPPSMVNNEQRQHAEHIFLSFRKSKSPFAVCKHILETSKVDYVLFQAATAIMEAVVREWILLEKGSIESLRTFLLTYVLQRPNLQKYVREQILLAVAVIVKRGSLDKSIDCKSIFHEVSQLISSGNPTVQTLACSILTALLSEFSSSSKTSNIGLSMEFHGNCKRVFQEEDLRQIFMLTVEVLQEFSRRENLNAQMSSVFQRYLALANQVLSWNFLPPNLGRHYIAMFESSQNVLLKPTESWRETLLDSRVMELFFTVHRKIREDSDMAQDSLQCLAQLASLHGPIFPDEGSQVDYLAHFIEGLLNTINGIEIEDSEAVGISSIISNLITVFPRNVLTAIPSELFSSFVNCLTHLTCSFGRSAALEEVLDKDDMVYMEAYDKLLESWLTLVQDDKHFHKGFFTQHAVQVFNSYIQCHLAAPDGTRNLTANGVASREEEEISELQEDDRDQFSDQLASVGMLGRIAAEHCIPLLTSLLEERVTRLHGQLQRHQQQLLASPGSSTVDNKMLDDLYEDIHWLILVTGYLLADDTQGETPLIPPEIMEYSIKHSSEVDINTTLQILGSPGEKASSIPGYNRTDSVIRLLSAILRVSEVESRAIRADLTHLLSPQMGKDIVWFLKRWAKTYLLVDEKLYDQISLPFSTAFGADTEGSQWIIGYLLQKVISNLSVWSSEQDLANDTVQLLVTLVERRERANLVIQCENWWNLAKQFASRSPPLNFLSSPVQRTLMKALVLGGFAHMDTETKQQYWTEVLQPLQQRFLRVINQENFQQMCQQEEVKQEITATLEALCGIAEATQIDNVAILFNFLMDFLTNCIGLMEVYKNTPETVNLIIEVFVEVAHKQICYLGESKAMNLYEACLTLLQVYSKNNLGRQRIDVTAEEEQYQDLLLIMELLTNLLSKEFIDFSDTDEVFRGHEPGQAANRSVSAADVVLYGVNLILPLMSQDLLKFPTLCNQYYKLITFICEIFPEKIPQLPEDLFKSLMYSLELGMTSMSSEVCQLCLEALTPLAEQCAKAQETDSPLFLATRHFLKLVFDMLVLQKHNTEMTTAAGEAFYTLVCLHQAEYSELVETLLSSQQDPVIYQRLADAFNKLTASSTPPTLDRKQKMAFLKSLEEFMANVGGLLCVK
# UniProt O15156: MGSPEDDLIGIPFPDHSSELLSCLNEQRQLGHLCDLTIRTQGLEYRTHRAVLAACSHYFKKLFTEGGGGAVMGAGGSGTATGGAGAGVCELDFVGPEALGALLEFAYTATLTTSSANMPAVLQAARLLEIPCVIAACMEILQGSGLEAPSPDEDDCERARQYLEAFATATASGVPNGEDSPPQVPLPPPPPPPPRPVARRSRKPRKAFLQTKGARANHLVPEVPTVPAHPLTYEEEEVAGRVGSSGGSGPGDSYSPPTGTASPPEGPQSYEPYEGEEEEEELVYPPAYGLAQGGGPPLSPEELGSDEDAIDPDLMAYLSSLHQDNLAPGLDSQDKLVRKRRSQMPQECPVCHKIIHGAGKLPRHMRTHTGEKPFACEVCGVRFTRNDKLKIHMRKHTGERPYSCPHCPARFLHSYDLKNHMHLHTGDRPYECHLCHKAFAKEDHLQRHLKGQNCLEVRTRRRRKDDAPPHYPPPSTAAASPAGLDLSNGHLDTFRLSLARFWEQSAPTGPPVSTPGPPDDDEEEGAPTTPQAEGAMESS
# UniProt Q8IWR0: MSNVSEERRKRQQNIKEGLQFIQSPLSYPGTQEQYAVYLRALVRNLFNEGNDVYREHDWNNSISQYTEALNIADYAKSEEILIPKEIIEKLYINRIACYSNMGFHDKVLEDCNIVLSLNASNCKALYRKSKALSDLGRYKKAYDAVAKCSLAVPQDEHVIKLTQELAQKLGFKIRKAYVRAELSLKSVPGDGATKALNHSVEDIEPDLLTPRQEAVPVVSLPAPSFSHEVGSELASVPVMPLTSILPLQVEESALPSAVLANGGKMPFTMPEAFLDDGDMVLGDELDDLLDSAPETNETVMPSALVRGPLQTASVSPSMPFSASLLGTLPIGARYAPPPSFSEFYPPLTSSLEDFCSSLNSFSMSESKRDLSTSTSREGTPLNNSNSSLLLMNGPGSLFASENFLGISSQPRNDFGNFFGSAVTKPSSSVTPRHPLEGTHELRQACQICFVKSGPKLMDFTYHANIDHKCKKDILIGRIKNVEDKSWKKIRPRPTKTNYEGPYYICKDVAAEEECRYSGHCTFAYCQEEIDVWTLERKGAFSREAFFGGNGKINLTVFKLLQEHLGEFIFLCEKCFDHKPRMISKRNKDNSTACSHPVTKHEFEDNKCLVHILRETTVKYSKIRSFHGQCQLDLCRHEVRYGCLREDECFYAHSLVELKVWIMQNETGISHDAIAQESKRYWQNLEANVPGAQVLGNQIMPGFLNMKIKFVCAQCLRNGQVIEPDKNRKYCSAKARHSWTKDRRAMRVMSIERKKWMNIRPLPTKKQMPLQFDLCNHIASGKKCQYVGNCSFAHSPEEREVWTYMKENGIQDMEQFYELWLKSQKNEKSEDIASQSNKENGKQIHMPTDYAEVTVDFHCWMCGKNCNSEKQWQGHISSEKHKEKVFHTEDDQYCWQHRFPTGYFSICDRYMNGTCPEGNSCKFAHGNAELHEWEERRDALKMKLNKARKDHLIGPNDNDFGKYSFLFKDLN
# UniProt Q9UIA9: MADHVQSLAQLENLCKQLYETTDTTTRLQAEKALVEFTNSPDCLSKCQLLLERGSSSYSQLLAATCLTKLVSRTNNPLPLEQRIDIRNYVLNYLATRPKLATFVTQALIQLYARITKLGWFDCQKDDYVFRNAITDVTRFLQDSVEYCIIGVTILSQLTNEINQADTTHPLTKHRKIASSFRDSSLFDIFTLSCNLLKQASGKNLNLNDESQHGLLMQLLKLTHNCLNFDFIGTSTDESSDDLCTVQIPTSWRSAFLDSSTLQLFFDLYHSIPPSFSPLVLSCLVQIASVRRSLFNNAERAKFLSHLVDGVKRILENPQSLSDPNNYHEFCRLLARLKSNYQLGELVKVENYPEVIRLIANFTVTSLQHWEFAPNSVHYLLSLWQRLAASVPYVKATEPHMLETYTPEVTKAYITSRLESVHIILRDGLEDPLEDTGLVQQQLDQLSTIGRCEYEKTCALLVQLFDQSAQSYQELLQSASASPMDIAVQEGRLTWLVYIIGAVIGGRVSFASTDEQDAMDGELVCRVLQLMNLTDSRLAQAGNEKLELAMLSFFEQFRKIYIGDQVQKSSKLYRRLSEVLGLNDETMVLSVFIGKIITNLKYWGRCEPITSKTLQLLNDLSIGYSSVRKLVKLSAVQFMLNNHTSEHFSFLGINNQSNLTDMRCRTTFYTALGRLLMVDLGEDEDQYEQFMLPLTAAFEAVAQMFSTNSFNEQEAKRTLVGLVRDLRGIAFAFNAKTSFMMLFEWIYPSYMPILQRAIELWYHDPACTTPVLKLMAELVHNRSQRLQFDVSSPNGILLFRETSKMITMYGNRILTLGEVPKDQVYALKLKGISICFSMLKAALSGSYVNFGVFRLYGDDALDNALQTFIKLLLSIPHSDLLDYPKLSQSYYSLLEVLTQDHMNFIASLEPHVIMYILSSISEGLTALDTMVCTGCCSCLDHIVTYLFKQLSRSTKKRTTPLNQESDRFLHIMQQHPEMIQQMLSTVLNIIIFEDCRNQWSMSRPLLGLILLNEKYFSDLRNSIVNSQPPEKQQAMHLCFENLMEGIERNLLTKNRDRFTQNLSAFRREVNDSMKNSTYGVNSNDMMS
# Compound: CC1Cc2ccccc2N1C(=O)C1CCCN(C1)C(=O)CCl (mixture of isomers) [TRIM25 ligand 11 (diastereomer mixture)]
# Test: probe-labelled cysteine peptide fold change vs DMSO (competition) (log2 fold change); higher = less target engagement (more negative = stronger competition)
# Details: 50 µM; THP-1; incubation time: 4 h
# 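Further: competitive chemoproteomic profiling in live THP-1 cells with an iodoacetamide desthiobiotin (IA-DTB) probe, comparing probe-labelled peptide intensities in compound-treated cells against DMSO-treated controls.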
row,Target,probe-labelled cysteine peptide fold change
1,XPO1_O14980_528_DLLGLCEQK (UniProt O14980),0.0262
2,ZC3HAV1_Q7Z2W4_867_FTEGNITYTSPPPQFDSCVDTR (UniProt Q7Z2W4),0.0873
3,ZBTB14_O43829_391_PFVCGSCTK (UniProt O43829),0.00623
4,ZFAND1_Q8TCF1_44_ESHGCPEVTVINER (UniProt Q8TCF1),0.0179
5,ZC3H14_Q6PJT7_607_YWPACK (UniProt Q6PJT7),0.0469
6,YTHDF2_Q9Y5A9_433_YNIWCSTEHGNK (UniProt Q9Y5A9),-0.0273
7,ZC3HAV1_Q7Z2W4_721_TSSVSLTATFRPQEDFCFLSSK (UniProt Q7Z2W4),-0.0616
8,ZC3H11A_O75152_80_LNCAFHHNR (UniProt O75152),0.082
9,ZCCHC3_Q9NUD5_356+366_CGEEGHLSPYCR (UniProt Q9NUD5),-0.148
10,XPR1_Q9UBH6_62_FFQTCEK (UniProt Q9UBH6),0.152
11,XRCC5_P13010_157_KCDISLQFFLPFSLGK (UniProt P13010),0.0523
12,ZBTB33_Q86T24_32_GHGLFCDVTVIVEDR (UniProt Q86T24),0.0892
13,XRN1_Q8IZH2_1487_LSNGLLVHGPQCHSENEAK (UniProt Q8IZH2),0.0496
14,XPO4_Q9C0E2_54_SPFAVCK (UniProt Q9C0E2),0.0485
15,ZBTB7A_O95365_34_TQGLLCDVVILVEGR (UniProt O95365),-0.0545
16,YEATS2_Q9ULM3_1173_SEDASCFSAK (UniProt Q9ULM3),0.162
17,ZC3H14_Q6PJT7_641_CLFVHPNCK (UniProt Q6PJT7),-0.0988
18,ZBTB7B_O15156_23_GSPEDDLIGIPFPDHSSELLSCLNEQR (UniProt O15156),-0.227
19,ZC3H7B_Q9UGR2_91_AACYFTMGLYEK (UniProt Q9UGR2),-0.0506
20,ZC3H7A_Q8IWR0_572_LLQEHLGEFIFLCEK (UniProt Q8IWR0),0.0436
21,XPO7_Q9UIA9_331_ILENPQSLSDPNNYHEFCR (UniProt Q9UIA9),0.164

# 2 entries from above in a different format:
row	Target	probe-labelled cysteine peptide fold change
4	ZFAND1_Q8TCF1_44_ESHGCPEVTVINER (UniProt Q8TCF1)	0.0179
5	ZC3H14_Q6PJT7_607_YWPACK (UniProt Q6PJT7)	0.0469

# From the supplement of paper PMC12067093, “Discovery and optimisation of a covalent ligand for TRIM25 and its application to targeted protein ubiquitination” (Chemical Science, 2025)
